Values joined by “and” are separate entries in the source; they are usually repeats but may differ in a detail not shown here. Equal entries are not always repeated. The list shows a part of the results. These are further read-outs of the screen, such as a control signal, another cell line or another target. No call is given for them. The list favours compounds with an active or inconclusive main result. Words in brackets tell the shape of the fitted curve; partial curves, single points and poor fits give uncertain potencies.
Assay: qHTS Assay to Find Inhibitors of Chronic Active B-Cell Receptor Signaling
Conditions: ABC-DLBCL IkBa-CBG/CBR reporter, luminescence ratio (green luciferase fused to IkBa over red control in TMD8 lymphoma cells), 4 h
How it was run: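 Concentration-response series (up to 46 uM) were applied to TMD8 dual-reporter cells for 4 h at 37C with doxycycline. Green/red ratio, after filter-overlap correction, defined %Activity; red signal alone was normalised to basal cells and zero luminescence.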

[1] = measured here: CBR red luminescence, cell number
[2] = measured here: IkBa-CBG green luminescence

Compound	AC50 [1]	AC50 [2]
CC(C)c1ccc(NC(=O)c2cc(S(=O)(=O)NCC3COc4ccccc4O3)ccc2F)cc1 (stereo not given)	18.4 µM [falling, single point]	
CC(=O)c1cccc(NC(=O)c2ccncc2)c1	35.5 µM [rising, single point]	
OC(CCN1CCCC1)(c1ccccc1)C1CCCCC1 (stereo not given)	8.91 µM [falling, partial curve, poor fit]	
CCOc1ccccc1/C=C/c1onc(C)c1S(=O)(=O)N1CCC(C(=O)N(CC)CC)CC1	1 µM [rising, full curve, poor fit] and 15.8 µM [falling, single point]	
Nc1nnc(-c2cn(-c3ccccc3)nc2-c2ccc(Cl)cc2)o1	22.4 µM [rising, single point]	
O=c1cc(-c2ccc(Cl)cc2)[nH]c2ccccc12	8.91 µM [falling, partial curve, poor fit]	
O=C(O)c1ccc(Cn2cnc3sc4c(c3c2=O)CCCC4)cc1	8.91 µM [falling, partial curve, poor fit]	
COC(=O)c1ccc(-c2noc(CN(C)CCC3CCCCO3)n2)cc1 (stereo not given)	2.51 µM [falling, partial curve, poor fit]	
CC(C)[C@H](NC(=O)c1ccccc1)C(=O)NCCc1ccccc1	7.08 µM [rising, full curve, poor fit]	
COc1ccc(CN(C)S(=O)(=O)c2nnc(NC(=O)c3cccc(F)c3)s2)cc1OC	7.08 µM [rising, partial curve, poor fit]	
COc1ccc2c(c1OC)C(=O)OC2CC(=O)c1ccc(O)cc1 (stereo not given)	11.2 µM [falling, partial curve]	
COc1cc2c(cc1NC(=O)CSc1nnc(COc3ccc(Cl)cc3)n1C)oc1ccccc12	11.2 µM [falling, partial curve]	15.8 µM [rising, partial curve, poor fit]
CS(=O)(=O)N(Cc1ccccc1)c1ccccc1C(=O)Nc1ccccc1C(=O)NCc1ccco1	0.517 µM [falling, partial curve, poor fit]	
Cc1ccc(-c2nc3ccccc3nc2-c2ccccc2)cc1	0.708 µM [rising, full curve, poor fit]	
CCC(Sc1nc2n[nH]c(C)c2c(=N)n1-c1cccc(Cl)c1)C(=O)NCCOC (stereo not given)	35.5 µM [falling, single point]	
CN1CCN(c2ccccc2NC(=O)c2cccc(OCc3ccccc3)c2)CC1	1.84 µM [falling, single point]	
CCc1ccc(/C(C)=N/NC(=O)c2c[nH]c3ccccc23)s1	7.94 µM [falling, partial curve]	
COc1cccc(C2C(C(C)=O)=C(O)C(=O)N2CCNCCO)c1 (stereo not given)	35.5 µM [rising, single point]	
CC(C)(C)c1ccc(NC(=O)CSc2n[nH]c(=O)n2-c2cccnc2)cc1	12.6 µM [falling, partial curve, poor fit]	
Cc1cccc(NC(=O)CCN2C(=O)C3C4C=CC(C4)C3C2=O)c1 (stereo not given)	8.2 µM [rising, partial curve, poor fit]	

Complete entries, looked up by structure:
`O=C(O)c1ccc(Cn2cnc3sc4c(c3c2=O)CCCC4)cc1` is entered as AC50 [1]: 8.91 µM [falling, partial curve, poor fit]
`CCC(Sc1nc2n[nH]c(C)c2c(=N)n1-c1cccc(Cl)c1)C(=O)NCCOC` (stereo not given) is entered as AC50 [1]: 35.5 µM [falling, single point]

(listing goes on)

Compound	AC50 [1]	AC50 [2]
Clc1cccc(-c2nc(NCCCN3CCOCC3)c3ccccc3n2)c1	20 µM [falling, partial curve, poor fit]	35.5 µM [rising, partial curve, poor fit]
COc1ccc(-c2cnnn2-c2ccc(NC(=O)c3c(F)cccc3F)cc2)cc1	6.31 µM [falling, single point]	
C=C(C)C(=O)N1CC2(CC(c3cccc(NC(=O)COc4ccc(Cl)cc4)c3)=NO2)C[C@@H]1C(N)=O (stereo not given in full)	12.6 µM [falling, partial curve, poor fit]	
Cc1cc(=O)n(CC=C(Cl)Cl)c2ccccc12	1.12 µM [rising, full curve, poor fit]	
O=C(CNC(=O)c1ccc2c(c1)OCO2)Nc1ncccc1O	18.4 µM [falling, partial curve]	
CC(=O)c1ccc(Oc2cc(C)nc(-n3nc(C)cc3C)n2)cc1	16.4 µM [rising, single point]	20.6 µM [falling, partial curve]
Cc1nc2c(C(=O)NCc3ccccc3)c[nH]n2c(=O)c1Cl	35.5 µM [rising, single point]	
CCN(C[C@H]1N[C@@](C)(C(=O)OC)[C@H]2C(=O)N(Cc3ccccc3)C(=O)[C@@H]12)C(=O)COC	13 µM [rising, partial curve, poor fit]	
CSc1ccc(CNCCCSc2ncccn2)cc1	17.8 µM [falling, single point]	
CCN1CCN(C(=O)c2ccc3c(Cl)c4c(nc3c2)CCCC4)CC1	11.2 µM [falling, partial curve, poor fit]	
O=C(CN1CCC(C(=O)c2ccc(F)cc2)CC1)Nc1ccc(F)cc1	16.4 µM [falling, partial curve, poor fit]	
NS(=O)(=O)c1ccc(CNC(=O)CSc2ccccc2)cc1	35.5 µM [rising, single point]	
Cc1c(Cl)cccc1NC(=O)Nc1ccc(C(N)=O)cc1	2.51 µM [falling, partial curve, poor fit]	
COc1ccccc1NC(=S)NCCc1ccccc1	3.55 µM [rising, single point]	
O=S(=O)(c1ccc(S(=O)(=O)N2CCN(Cc3ccccc3)CC2)cc1)N1CCOCC1	1 µM [rising, full curve, poor fit]	
Cc1ccc(Nc2nc(-c3c(C)nc4ncccn34)cs2)cc1	1.26 µM [rising, partial curve, poor fit]	2.51 µM [falling, partial curve]
COc1ccc(N(CC(=O)NCCc2ccc(OC)c(OC)c2)S(=O)(=O)c2ccc(OC)c(OC)c2)cc1	10 µM [rising, partial curve]	
COc1ccc(CC(=O)N2CCc3ccccc3C2)cc1	2.82 µM [rising, full curve, poor fit]	
COc1ccc(F)cc1S(=O)(=O)Nc1cc2c3c(c1)CCN3C(=O)CC2	25.9 µM [rising, partial curve, poor fit]	
O=C1CC(SCCc2nc3ccccc3[nH]2)C(=O)N1c1ccc(Cl)cc1 (stereo not given)	14.1 µM [falling, partial curve, poor fit]	

Compound	AC50 [1]	AC50 [2]
Cc1nc2ccccc2c2oc(C(=O)NCCN3CCN(C)CC3)cc12	0.282 µM [falling, full curve, poor fit]	
COc1ccc(OC)c(NC(=O)CSc2ccnc(=O)[nH]2)c1	3.98 µM [falling, full curve]	
Cc1ccc(C2CC(c3ccc(NS(C)(=O)=O)cc3)=NN2C(=O)c2ccco2)cc1 (stereo not given)	29.1 µM [falling, single point]	
COc1ccc(NC(=O)c2c(NCc3ccc(C)o3)sc3c2CCC(C)C3)c(OC)c1 (stereo not given)	35.5 µM [falling, single point]	
COc1cccc(Oc2ccc(C(F)(F)F)cc2NC(=O)c2cccc(F)c2)c1	1.84 µM [rising, partial curve]	
Brc1ccc(Nc2ncnc3[nH]ncc23)cc1	5.62 µM [rising, single point]	
COCCCn1c(SCc2cccc(C(F)(F)F)c2)nc2cc(OC)c(OC)cc2c1=N	7.94 µM [falling, partial curve, poor fit]	
CCN(CC)CCN1C(=O)c2ccccc2NC1c1ccc(N(C)C)cc1 (stereo not given)	32.6 µM [falling, single point]	
CCC(=O)N(CCC1(c2ccccc2OC)CCOC(C(C)C)C1)Cc1ccco1 (stereo not given)	35.5 µM [falling, partial curve, poor fit]	
CCOC(=O)c1c[nH]c2c(Cl)c(Cl)ccc2c1=O	0.411 µM [rising, partial curve, poor fit]	
CCn1cc(C(=O)Nc2ccccc2)c(=O)c2ccc(C)nc21	0.0891 µM [rising, full curve, poor fit]	
O=C(c1ccc2c(c1)OCO2)C1CCCN(Cc2cn[nH]c2-c2cccc(F)c2)C1 (stereo not given)	4.47 µM [falling, full curve]	
O=C(c1cc(-c2ccccc2)on1)N1CCN(c2ccccc2)CC1	0.501 µM [falling, full curve, poor fit]	
COC(=O)C1=C(C)OC(N)=C(C#N)C1c1c(C)nn(-c2ccccc2)c1Cl (stereo not given)	0.651 µM [falling, partial curve, poor fit]	
c1ccc(Oc2ccc(-n3cnnn3)cc2)cc1	18.4 µM [rising, single point]	
C[C@H](CO)N1C[C@H](C)[C@@H](CN(C)C(=O)Nc2ccccc2)Oc2c(NC(=O)Nc3ccc(C(F)(F)F)cc3)cccc2C1=O	20.6 µM [falling, single point]	
CC(=O)NC1=NN(C(C)=O)C(C)(c2ccco2)S1 (stereo not given)	35.5 µM [falling, single point]	
Cc1ccc(NC(=S)NC2CCSc3ccccc32)cc1 (stereo not given)	14.1 µM [falling, partial curve, poor fit]	
Cc1cc(-c2ccc(S(=O)(=O)N(C)c3ccc(C)c(C)c3)s2)on1		12.6 µM [falling, partial curve, poor fit]
CNCCCOc1ccc(C(C)(C)c2ccccc2)cc1	13 µM [falling, partial curve, poor fit]	16.4 µM [rising, partial curve, poor fit]
